Results taken from patent EP4582447A1 (Quaerite Biopharm Research (Beijing) Co., Ltd., dated 2025).
These are yes or no findings as the source states them, for the method shown. Some binding calls cover weakened binding; strength is not graded here.

Target: T1, human VEGFA121 (human, UniProt P15692-9 27-147)
T1 sequence (looked up): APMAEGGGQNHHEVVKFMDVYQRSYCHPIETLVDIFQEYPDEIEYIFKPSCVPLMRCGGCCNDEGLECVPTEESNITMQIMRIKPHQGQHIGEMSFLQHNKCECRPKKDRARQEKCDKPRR
Test: ELISA, human VEGFA121 coated 0.3 µg/mL

binding: binds
B1: V1 (VHH)
VHH: QLQLVESGGGSVQPGGSLRLSCEVSGRTFSSYTMGWFRQAPGKEREFVVAISKGGYKYDSVSLEARFTISKDNTKNTVYLQMNSLKPEDTAVYYCAATRAYGSSRLRLADTYEYWGQGTQVTVSS
notes: also called candidate antibody V1; antibody V1
